Numbering of substitutions follows the chain as printed. Names and notes keep the numbering of the source. Results are given in words; binding and its absence hold for the method and conditions named. For some assays here: In cells and extracts the contact can be indirect. Some binding calls cover weakened binding; strength is not graded here. Tags and fused reporters may be left off the sequences shown.

We go through six molecules from PMC1435744.

Experiment [1] has as its target T1, full-length mr-s, HA-tagged or Flag-tagged, expressed in HEK293T cells (mouse) (UniProt Q1RNF8).
T1 sequence: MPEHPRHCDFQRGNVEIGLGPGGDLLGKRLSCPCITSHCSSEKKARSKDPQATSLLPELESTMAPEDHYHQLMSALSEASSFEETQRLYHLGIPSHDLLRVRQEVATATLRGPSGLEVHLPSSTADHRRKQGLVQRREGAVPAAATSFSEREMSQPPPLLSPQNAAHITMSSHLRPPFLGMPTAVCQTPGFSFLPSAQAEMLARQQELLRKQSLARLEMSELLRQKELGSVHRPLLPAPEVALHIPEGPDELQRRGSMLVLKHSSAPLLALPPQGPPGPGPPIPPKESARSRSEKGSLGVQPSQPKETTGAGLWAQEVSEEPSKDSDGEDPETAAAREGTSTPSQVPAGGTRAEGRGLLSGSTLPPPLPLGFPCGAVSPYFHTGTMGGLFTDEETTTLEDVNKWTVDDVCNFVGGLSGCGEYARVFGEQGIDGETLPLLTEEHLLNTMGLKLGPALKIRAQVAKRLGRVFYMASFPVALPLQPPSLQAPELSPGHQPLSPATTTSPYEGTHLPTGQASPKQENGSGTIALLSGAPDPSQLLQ
Nature of the experiment: co-IP; HEK293T co-transfected with HA- and Flag-tagged constructs; 1 mg lysate precipitated with anti-Flag antibody and protein G-Sepharose, 4°C, 2 hrs, 150 mM NaCl, 1% Nonidet P-40; detected by anti-HA blot.

Experiment [2] has as its target T2, mr-s ΔSAM (amino acids 1 to 400), HA-tagged or Flag-tagged, expressed in HEK293T cells (mouse) (UniProt Q1RNF8).
T2 sequence: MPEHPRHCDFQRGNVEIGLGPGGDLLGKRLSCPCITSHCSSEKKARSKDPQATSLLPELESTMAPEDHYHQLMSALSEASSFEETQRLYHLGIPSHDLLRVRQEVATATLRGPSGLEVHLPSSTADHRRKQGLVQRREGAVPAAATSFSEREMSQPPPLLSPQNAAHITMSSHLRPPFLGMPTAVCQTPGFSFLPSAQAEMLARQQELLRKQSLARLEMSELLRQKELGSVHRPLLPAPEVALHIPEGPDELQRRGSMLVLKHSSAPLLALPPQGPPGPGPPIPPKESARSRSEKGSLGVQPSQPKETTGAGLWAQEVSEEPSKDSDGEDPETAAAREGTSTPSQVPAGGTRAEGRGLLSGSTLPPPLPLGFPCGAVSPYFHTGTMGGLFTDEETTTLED
The experiment is described as above.

Experiment [3] deals with N-terminal portion of mr-s (amino acids 1 to 400), yeast two-hybrid fusion (mouse) (UniProt Q1RNF8). Nature of the experiment: two-hybrid; GAL4 assay: full-length, N (1-400) and C (391-542) of mr-s in pGBKT7 and pGADT7; lacZ scored by blue colour on X-gal plates (++ after 12 hr, + after 24 hr at 37°C).
For experiment [4], the target named is T3, mr-s (major retinal SAM domain protein), full-length, yeast two-hybrid fusion (mouse) (UniProt Q1RNF8).
T3 sequence: T1 sequence
Described as above.

For experiment [5], the target named is T1, full-length mr-s, HA-tagged or Flag-tagged, expressed in HEK293T cells (mouse). In words: co-IP; HEK293T co-transfected with full-HA and Flag-tagged full-length wild type or mutants; precipitated with anti-HA antibody, detected by anti-Flag antibody.
In experiment [6] the target is C-terminal portion of mr-s (amino acids 391 to 542), yeast two-hybrid fusion (mouse) (UniProt Q1RNF8). In words: two-hybrid; GAL4 assay: full-length, N (1-400) and C (391-542) of mr-s in pGBKT7 and pGADT7; lacZ scored by blue colour on X-gal plates (++ after 12 hr, + after 24 hr at 37°C).

B1: mr-s ΔSAM (amino acids 1 to 400), HA-tagged or Flag-tagged, expressed in HEK293T cells (domain or fragment, UniProt Q1RNF8 1-400)
chain: T2 sequence
In the case of B1, the binding result in experiment [1] and in experiment [2] was “binds” throughout.

B2: N-terminal portion of mr-s (amino acids 1 to 400), yeast two-hybrid fusion (domain or fragment, UniProt Q1RNF8 1-400)
chain: T2 sequence
B2: the binding entry in experiment [3] and in experiment [4] was “binds weakly” in each case.

B3: Flag-tagged full-length mr-s G453A (protein, UniProt Q1RNF8 1-542)
chain: T1 sequence with G453A
Consider B3, for which, in experiment [5], the binding result is “binds”.

B4: full-length mr-s, HA-tagged or Flag-tagged, expressed in HEK293T cells (protein, UniProt Q1RNF8 1-542)
chain: T1 sequence
Consider B4, for which the binding result in experiment [1] is on record as “binds”; in experiment [2], “binds weakly”; in experiment [5], “binds”.

B5: mr-s (major retinal SAM domain protein), full-length, yeast two-hybrid fusion (protein, UniProt Q1RNF8 1-542)
chain: T1 sequence
For B5, the binding entry in experiment [4] is recorded as “binds”.

B6: C-terminal portion of mr-s (amino acids 391 to 542), yeast two-hybrid fusion (domain or fragment, UniProt Q1RNF8 391-542)
chain: TDEETTTLEDVNKWTVDDVCNFVGGLSGCGEYARVFGEQGIDGETLPLLTEEHLLNTMGLKLGPALKIRAQVAKRLGRVFYMASFPVALPLQPPSLQAPELSPGHQPLSPATTTSPYEGTHLPTGQASPKQENGSGTIALLSGAPDPSQLLQ
As for B6, the binding entry in experiment [4] and in experiment [6] was “binds” throughout.
